Measurements reported in US20030032096A1 (US Dept. of Health and Human Services, published 2003).
These are yes or no findings as the source states them, for the method shown. Some results given as binding are weak or reduced against the parent protein; the word gives no strength.

The chains behind the UniProt entries cited, without tags or fusion partners. Residues count along the entry.
UniProt P49190, residues 25-550: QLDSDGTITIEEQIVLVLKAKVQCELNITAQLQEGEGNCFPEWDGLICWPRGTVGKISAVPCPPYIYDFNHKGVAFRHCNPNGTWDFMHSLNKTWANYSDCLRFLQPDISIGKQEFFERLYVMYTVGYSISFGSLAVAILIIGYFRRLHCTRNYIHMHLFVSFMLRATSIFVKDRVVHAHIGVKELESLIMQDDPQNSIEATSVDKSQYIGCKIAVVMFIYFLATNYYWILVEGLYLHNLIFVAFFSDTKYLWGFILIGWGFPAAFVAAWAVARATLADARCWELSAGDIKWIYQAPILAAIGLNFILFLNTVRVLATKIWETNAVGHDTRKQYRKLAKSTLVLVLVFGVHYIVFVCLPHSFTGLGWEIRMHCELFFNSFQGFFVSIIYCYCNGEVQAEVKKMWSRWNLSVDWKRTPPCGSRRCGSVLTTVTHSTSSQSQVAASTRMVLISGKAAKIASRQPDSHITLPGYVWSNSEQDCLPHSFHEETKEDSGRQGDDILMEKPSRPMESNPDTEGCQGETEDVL
UniProt P12272, residues 43-70: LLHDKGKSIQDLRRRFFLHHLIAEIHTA

Target: human parathyroid hormone type 2 receptor (PTH2 receptor) (human) (UniProt P49190)
Test: displacement of [125I]TIP39, HEK293 membranes, 10 µM GTPγS

“PTHrP(7-34) amide (from UniProt P12272 43-70) (peptide)” was tested. Which binding did it give?
The binding was “binds”.
